Measurements from article PMC6156291.
These are yes or no findings as the source states them, for the method shown. Binding seen in cells or lysates may run through a third protein. Some binding calls cover weakened binding; strength is not graded here.

Amino acid sequences for entries named in this document (tags omitted). A change or cut given only in a name is not applied to a line headed by its entry. Chains listed by the source or under a name are the forms on record and can include a tag or linker. Residues count along the entry.
FLAG-lamin A (P02545, residues 1-646): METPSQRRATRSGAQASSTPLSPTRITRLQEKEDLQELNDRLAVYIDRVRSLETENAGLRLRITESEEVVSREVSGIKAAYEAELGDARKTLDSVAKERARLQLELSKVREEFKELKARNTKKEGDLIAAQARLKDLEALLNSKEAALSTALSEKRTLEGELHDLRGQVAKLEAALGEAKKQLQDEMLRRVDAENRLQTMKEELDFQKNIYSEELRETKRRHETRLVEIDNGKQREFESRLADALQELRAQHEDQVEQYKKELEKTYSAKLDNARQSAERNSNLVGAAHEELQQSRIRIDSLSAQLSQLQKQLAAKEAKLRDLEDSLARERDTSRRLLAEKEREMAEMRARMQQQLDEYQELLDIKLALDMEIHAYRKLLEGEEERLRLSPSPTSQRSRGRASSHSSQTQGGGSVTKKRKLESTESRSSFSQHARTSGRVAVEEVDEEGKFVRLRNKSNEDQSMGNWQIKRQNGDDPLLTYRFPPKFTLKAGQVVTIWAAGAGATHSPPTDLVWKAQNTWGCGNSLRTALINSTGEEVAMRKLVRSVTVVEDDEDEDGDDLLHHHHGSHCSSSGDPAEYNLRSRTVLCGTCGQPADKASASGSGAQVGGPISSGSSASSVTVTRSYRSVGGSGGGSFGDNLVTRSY
lamin A/C in APS fibroblasts (P4R LMNA) (human (endogenous in dermal fibroblasts)) (P02545, form named): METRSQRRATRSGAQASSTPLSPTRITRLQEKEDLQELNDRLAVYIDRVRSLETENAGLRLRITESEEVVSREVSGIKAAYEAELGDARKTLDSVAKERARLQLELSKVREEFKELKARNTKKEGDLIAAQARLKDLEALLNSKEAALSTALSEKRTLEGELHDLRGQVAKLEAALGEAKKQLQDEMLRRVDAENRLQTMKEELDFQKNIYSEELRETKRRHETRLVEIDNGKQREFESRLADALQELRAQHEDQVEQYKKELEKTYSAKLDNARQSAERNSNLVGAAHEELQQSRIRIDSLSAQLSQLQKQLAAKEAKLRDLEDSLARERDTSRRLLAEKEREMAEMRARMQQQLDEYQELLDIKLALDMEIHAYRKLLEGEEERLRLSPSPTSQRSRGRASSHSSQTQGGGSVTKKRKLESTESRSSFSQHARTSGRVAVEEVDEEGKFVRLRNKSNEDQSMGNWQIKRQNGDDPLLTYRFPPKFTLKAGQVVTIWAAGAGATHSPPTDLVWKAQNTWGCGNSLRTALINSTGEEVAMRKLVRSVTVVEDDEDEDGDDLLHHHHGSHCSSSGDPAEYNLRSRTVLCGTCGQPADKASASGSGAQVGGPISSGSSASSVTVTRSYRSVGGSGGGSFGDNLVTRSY
lamin A/C in EDMD2 fibroblasts (Y259D LMNA) (human (endogenous in dermal fibroblasts)) (P02545, form named): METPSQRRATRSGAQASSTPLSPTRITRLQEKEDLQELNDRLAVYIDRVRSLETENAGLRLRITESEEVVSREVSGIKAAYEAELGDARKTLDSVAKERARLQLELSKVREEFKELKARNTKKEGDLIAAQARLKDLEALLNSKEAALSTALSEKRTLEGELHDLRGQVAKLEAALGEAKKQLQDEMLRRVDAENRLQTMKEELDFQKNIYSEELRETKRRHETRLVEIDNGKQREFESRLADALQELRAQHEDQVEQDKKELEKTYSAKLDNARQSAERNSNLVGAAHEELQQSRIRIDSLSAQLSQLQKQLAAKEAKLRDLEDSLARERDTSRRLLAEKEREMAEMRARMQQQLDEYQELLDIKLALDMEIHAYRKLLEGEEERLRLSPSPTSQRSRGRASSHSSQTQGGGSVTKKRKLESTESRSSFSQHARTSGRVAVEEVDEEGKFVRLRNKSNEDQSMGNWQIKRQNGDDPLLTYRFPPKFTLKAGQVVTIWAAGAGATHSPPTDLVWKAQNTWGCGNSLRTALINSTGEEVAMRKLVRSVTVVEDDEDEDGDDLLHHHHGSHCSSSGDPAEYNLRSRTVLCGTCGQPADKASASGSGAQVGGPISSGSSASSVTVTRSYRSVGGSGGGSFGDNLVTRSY
lamin A/C in MADA fibroblasts (R527H LMNA) (human (endogenous in dermal fibroblasts)) (P02545, form named): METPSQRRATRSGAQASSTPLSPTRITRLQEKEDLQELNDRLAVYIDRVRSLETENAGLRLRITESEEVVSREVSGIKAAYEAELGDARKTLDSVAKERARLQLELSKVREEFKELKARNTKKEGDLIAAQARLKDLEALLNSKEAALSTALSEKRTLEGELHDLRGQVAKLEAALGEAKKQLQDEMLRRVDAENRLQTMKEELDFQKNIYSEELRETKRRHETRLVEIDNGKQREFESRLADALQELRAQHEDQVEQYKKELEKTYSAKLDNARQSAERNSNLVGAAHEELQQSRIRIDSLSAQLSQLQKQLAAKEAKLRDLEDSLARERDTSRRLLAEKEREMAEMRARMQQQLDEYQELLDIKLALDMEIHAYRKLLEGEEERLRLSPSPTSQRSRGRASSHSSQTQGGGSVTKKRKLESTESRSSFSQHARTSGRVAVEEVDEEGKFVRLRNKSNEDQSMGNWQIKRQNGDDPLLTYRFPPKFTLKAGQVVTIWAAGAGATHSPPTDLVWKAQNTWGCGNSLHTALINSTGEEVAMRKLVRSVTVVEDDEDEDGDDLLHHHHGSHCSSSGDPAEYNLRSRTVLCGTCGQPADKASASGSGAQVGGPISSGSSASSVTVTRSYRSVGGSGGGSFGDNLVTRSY
UniProt Q92769: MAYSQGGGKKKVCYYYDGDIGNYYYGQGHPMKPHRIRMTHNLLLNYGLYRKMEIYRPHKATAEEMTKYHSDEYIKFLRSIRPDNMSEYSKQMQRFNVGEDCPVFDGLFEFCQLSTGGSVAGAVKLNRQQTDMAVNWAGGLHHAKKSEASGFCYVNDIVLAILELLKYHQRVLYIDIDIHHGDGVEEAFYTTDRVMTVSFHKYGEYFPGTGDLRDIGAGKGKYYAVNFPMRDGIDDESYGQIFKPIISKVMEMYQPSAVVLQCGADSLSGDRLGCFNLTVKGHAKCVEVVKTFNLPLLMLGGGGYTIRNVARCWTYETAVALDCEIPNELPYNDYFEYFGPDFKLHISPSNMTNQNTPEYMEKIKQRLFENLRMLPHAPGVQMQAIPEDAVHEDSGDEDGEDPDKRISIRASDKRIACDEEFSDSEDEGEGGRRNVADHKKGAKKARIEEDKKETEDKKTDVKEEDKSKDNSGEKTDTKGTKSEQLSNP
UniProt Q06413: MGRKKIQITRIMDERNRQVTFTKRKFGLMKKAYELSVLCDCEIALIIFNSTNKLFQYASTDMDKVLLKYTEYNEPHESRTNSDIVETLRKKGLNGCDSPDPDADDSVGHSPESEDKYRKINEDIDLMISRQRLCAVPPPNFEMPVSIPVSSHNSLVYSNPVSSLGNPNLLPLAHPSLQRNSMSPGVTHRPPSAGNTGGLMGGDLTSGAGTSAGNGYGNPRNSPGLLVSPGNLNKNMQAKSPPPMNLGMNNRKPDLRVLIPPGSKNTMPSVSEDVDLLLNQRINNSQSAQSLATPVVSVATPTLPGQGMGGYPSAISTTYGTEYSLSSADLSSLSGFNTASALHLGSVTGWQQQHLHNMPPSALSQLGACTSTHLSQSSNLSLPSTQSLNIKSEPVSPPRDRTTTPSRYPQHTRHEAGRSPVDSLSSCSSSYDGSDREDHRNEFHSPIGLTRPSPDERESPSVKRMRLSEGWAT

What was measured:
[1] = biological target: lamin A/C (control human dermal fibroblasts) (human (endogenous in dermal fibroblasts)) (UniProt P02545); experiment: proximity ligation; in situ PLA (Duolink), methanol-fixed control human dermal fibroblasts, primary antibodies overnight at 4°C, 300 nuclei counted; untreated, also 4 hr H2O2, 48 hr recovery, MS275 5 µM 18 hr, HDAC2 or lamin A/C siRNA
[2] = biological target: lamin A/C (control human dermal fibroblasts) (human (endogenous in dermal fibroblasts)) (UniProt P02545); experiment: proximity ligation; in situ PLA (Duolink) of lamin A/C and HDAC2 in control fibroblasts transfected with WT FLAG-lamin A or FLAG-progerin (48 hr); nuclei of the same FLAG fluorescence intensity compared
[3] = biological target: lamin A/C (control human dermal fibroblasts) (human (endogenous in dermal fibroblasts)) (UniProt P02545); experiment: co-IP; endogenous proteins; nuclear extracts (about 350 µg) of normal or HGPS dermal fibroblasts in 50 mM Tris-HCl pH 8, 150 mM NaCl, 0.1% SDS, 1% NP-40; 4 µg anti-lamin A/C overnight at 4°C, protein A/G; western blot of HDAC2
[4] = biological target: lamin A/C in HGPS fibroblasts (G608G LMNA) (human (endogenous in dermal fibroblasts)) (UniProt P02545); experiment: as above
[5] = biological target: lamin A/C in APS fibroblasts (P4R LMNA) (human (endogenous in dermal fibroblasts)) (UniProt P02545); experiment: proximity ligation; in situ PLA (Duolink), methanol-fixed fibroblasts of APS (P4R), MADA (R527H) or EDMD2 (Y259D) patients, compared with controls
[6] = biological target: lamin A/C in EDMD2 fibroblasts (Y259D LMNA) (human (endogenous in dermal fibroblasts)) (UniProt P02545); experiment: as above
[7] = biological target: lamin A/C in MADA fibroblasts (R527H LMNA) (human (endogenous in dermal fibroblasts)) (UniProt P02545); experiment: as above
[8] = biological target: lamin A/C in HGPS fibroblasts (G608G LMNA) (human (endogenous in dermal fibroblasts)) (UniProt P02545); experiment: proximity ligation; in situ PLA (Duolink), methanol-fixed HGPS patient fibroblasts (G608G LMNA), 300 nuclei counted; untreated, also 4 hr H2O2 and 48 hr recovery
GFP-lamin A = GFP-lamin A (UniProt P02545); experiment: co-IP; transfected HEK293 cells; lysate in 50 mM Tris-HCl pH 8, 300 mM NaCl, 0.1% SDS, 1% NP-40; 700 µg lysate, 3 µg anti-GFP overnight, protein A/G, 3 washes in IP buffer; western blot; nonspecific IgG as negative control
wild-type FLAG-HDAC2 = wild-type FLAG-HDAC2 (UniProt Q92769); experiment: co-IP; transfected HEK293 cells; lysate in 50 mM Tris-HCl pH 8, 300 mM NaCl, 0.1% SDS, 1% NP-40; 700 µg lysate, 1 µg anti-FLAG overnight, protein A/G, 3 washes in IP buffer; western blot; nonspecific IgG as negative control
FLAG-lamin A = FLAG-lamin A (UniProt P02545); experiment: as above

Q: What does the source list for “endogenous HDAC2 (human dermal fibroblasts) (from UniProt Q92769 1-488) (enzyme)”?
A: binding [1]: binds; binding [2]: binds; binding [3]: binds; binding [4]: binds; binding [5]: binds; binding [6]: binds; binding [7]: binds; binding [8]: binds

Q: How did the binding (GFP-lamin A) turn out when “wild-type FLAG-HDAC2 (from UniProt Q92769 1-488) (enzyme)” was run?
A: Its binding is “binds”.

Q: For “phosphorylated form of HDAC2 (serine 394) (from UniProt Q92769 1-488) (enzyme)”, which binding [1] is on record?
A: The binding was “binds”.

Q: What about the binding [8] of the same substance?
A: Its binding is “binds”.

Q: With GFP-lamin A (from UniProt P02545 1-646) as the substance, how does the binding (wild-type FLAG-HDAC2) read?
A: The binding was “binds”.

Q: “nonphosphorylable FLAG-HDAC2 S394A (from UniProt Q92769 1-488) (enzyme)” was tested. Which binding (GFP-lamin A) did it give?
A: The binding was “binds”.

Q: “MEF2C (endogenous, control fibroblasts) (from UniProt Q06413 1-473)” was tested. Which binding [1] did it give?
A: The binding was “no binding”.

Q: “phosphomimetic FLAG-HDAC2 S394D (from UniProt Q92769 1-488) (enzyme)” was tested. Which binding (GFP-lamin A) did it give?
A: Its binding is “binds”.

Q: For “endogenous HDAC2 (HEK293 cells) (from UniProt Q92769 1-488) (enzyme)”, which binding (FLAG-lamin A) is on record?
A: The binding was “binds”.
